# Where “and” joins values, the source holds several entries; their conditions need not be identical. Equal entries are not always repeated. The list shows a part of the results. Shown are side measurements of this screen, not its main read-out; they come without a call. Most of these compounds were active or inconclusive in the main read-out, so they are no random draw. Words in brackets tell the shape of the fitted curve; partial curves, single points and poor fits give uncertain potencies.
# Experiment: IkB Signaling
# Details: ABC-DLBCL IkBa-CBG/CBR dual luciferase ratio (green luciferase fused to IkBa over red control in OCI-Ly3 lymphoma cells), 4 h
# In short: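 Luminescence ratio of IκBα-fused green versus native red beetle luciferase in OCI-Ly3 cells, 4 h post-doxycycline with compound; red signal alone, scaled from basal (0%) to zero light (-100%), flagged nonspecific or cytotoxic effects.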
# [1] = measured here: control luc red channel unless noted
# [2] = measured here: IkB-luc green channel
# [3] = measured here: control luc red channel
smiles,measurement,setting,value
COC(=O)c1ccccc1NC(=O)c1ccc(-c2ccccc2F)o1,AC50,[1],"0.0126 µM [falling, full curve]"
COc1ccccc1C(=O)Nc1ccc2nc(N3CCC(C)CC3)cc(C)c2c1,AC50,[1],"12.6 µM [falling, partial curve]"
CCn1c(=O)c2cc(C(=O)N(CCCOC(C)C)Cc3ccco3)sc2c2ccccc21,AC50,[1],"10 µM [falling, partial curve]"
O=C(c1cc2c(s1)-c1ccccc1OC2)N1CCN(c2ccccn2)CC1,AC50,[1],"7.94 µM [falling, full curve]"
Cc1ccc(-c2sc(C(=O)Nc3ccc(Br)cc3)cc2CC(=O)O)cc1,AC50,[1],"15.8 µM [falling, partial curve]"
O=C1Nc2ccccc2C12Nc1ccccc1-c1nc3ccccc3n12 (centres undefined),AC50,[1],"7.94 µM [falling, partial curve]"
Nc1c(C(=O)Nc2ccccc2Cl)c2ccccn2c1C(=O)c1ccc(Cl)cc1,AC50,[1],"0.1 µM [falling, full curve]"
COc1ccccc1-n1cnc2cc(C(=O)NCc3ccco3)ccc21,AC50,[1],"31.6 µM [rising, single point] [measured here: IkB-luc green channel]"
COc1ccc(NS(=O)(=O)c2ccc3c(c2)C(C(C)C)C(=O)N3)cc1 (centres undefined),AC50,[1],"31.6 µM [falling, partial curve]"
CCn1c(C)c(C2N3CC4(C)CN2CC(CC)(C3)C4=O)c2ccccc21 (centres undefined),AC50,[1],"12.6 µM [falling, partial curve, poor fit]"
COc1ccc(Nc2ncnc3c2cnn3-c2ccc(C)cc2C)cc1,AC50,[1],"25.1 µM [falling, partial curve, poor fit]"
Cc1nc2nc(COc3ccccc3)[nH]n2c(=O)c1Cc1ccccc1,AC50,[1],"3.16 µM [falling, full curve]"
Cc1c(C(=O)N(C)Cc2ccccc2)oc2ccc(S(=O)(=O)N3CCCC3)cc12,AC50,[1],"25.1 µM [falling, partial curve]"
Cc1cc(NS(=O)(=O)c2ccc3nc(-c4ccccc4)[nH]c3c2)ccc1Br,AC50,[1],"10 µM [falling, partial curve]"
COc1ccccc1-c1noc(CSc2nnc(Cc3ccccc3)n2-c2ccc(C)c(C)c2)n1,AC50,[1],"25.1 µM [falling, single point]"
Cc1ccc(N2CC(c3nnc(NC(=O)c4ccco4)s3)CC2=O)cc1Cl (centres undefined),AC50,[1],"12.6 µM [falling, partial curve, poor fit]"
CSc1ccc(C2c3[nH]c4ccccc4c3CCN2C(=O)CCc2ccccc2)cc1 (centres undefined),AC50,[1],"0.0501 µM [falling, full curve]"
C=CC(=O)OCCOCCOCCOCCOC(=O)C=C,AC50,[2],"5.01 µM [rising, partial curve] and 12.6 µM [rising, partial curve]"
same,AC50,[3],"31.6 µM [falling, partial curve]"
O=C(c1ccc(F)cc1)C(CN1CCOCC1)c1ccccc1 (centres undefined),AC50,[2],"3.98 µM [rising, single point]"
same,AC50,[3],"3.98 µM [falling, partial curve]"
Cc1ccc(-n2nc3c(=O)n(CCCC(=O)NCCc4ccccc4)nc(C)c3c2C)cc1,AC50,[1],"15.8 µM [falling, partial curve]"
Cc1ccccc1-c1nc(CN2CCCC(C(=O)NCc3ccc(Cl)cc3)C2)c(C)o1 (centres undefined),AC50,[1],"25.1 µM [falling, partial curve]"
CCc1ccc(S(=O)(=O)c2cn(CC(=O)Nc3ccc(F)c(Cl)c3)c3ccccc3c2=O)cc1,AC50,[1],"5.01 µM [falling, partial curve]"
COc1ccc(C2C(=O)N(C3CCCCC3)CC(=O)N2CCc2ccc(C)cc2)cc1OC (centres undefined),AC50,[1],"0.01 µM [falling, full curve, poor fit]"
Cc1ccc(CN2C(=O)C(O)(c3c(C)[nH]c4ccccc34)c3ccccc32)cc1 (centres undefined),AC50,[1],"20 µM [falling, partial curve]"
CCCOC(=O)c1cccc(Nc2nc(CCC)cc(=O)[nH]2)c1,AC50,[1],"20 µM [falling, partial curve]"
CCOC(=O)Cn1c(=N)n(Cc2ccc(C(C)(C)C)cc2)c2ccccc21,AC50,[1],"39.8 µM [falling, single point]"
Cc1nc2cc(-c3ccccc3)nn2c(C)c1CCC(=O)N1CCN(c2ccc(F)cc2)CC1,AC50,[1],"3.16 µM [falling, partial curve]"
Cc1ccc(-n2nnnc2SCc2nnc(-c3ccccc3Br)o2)c(C)c1,AC50,[1],"12.6 µM [falling, partial curve]"
COc1ccc(OC)c(S(=O)(=O)n2nnc3ccccc32)c1,AC50,[1],"10 µM [falling, partial curve]"
COc1ccccc1C1NC(=O)c2n[nH]c(-c3cccs3)c21 (centres undefined),AC50,[1],"25.1 µM [falling, single point]"
CC1CCN(C(=O)c2c(NC(=O)c3ccccc3Cl)sc3c2CCC(C(C)(C)C)C3)CC1 (centres undefined),AC50,[1],"2 µM [falling, partial curve]"
Cc1cc(C)cc(-n2ccnc2SCC(=O)Nc2cccc3ccccc23)c1,AC50,[1],"39.8 µM [falling, partial curve]"
O=C(c1cc2ccccc2oc1=O)N1CCN(Cc2ccc3c(c2)OCO3)CC1,AC50,[1],"10 µM [falling, partial curve]"
Cc1ccc(C(=O)C2CCN(CC(=O)Nc3ccc4c(c3)OCCO4)CC2)cc1,AC50,[1],"31.6 µM [falling, single point]"
Cc1cccc(-n2ccnc2SCC(=O)Nc2cccc3ccccc23)c1,AC50,[1],"0.00631 µM [falling, full curve, poor fit]"
O=C(c1cc2ccccc2o1)N1CCN(c2ccccc2Cl)CC1,AC50,[1],"25.1 µM [falling, partial curve]"
Cc1cc(C)cc(OCCSc2nc3ccc(NC(=O)c4ccc5c(c4)OCO5)cc3s2)c1,AC50,[1],"6.31 µM [falling, partial curve]"
CCc1ccc2[nH]cc(S(=O)(=O)c3ccc(C(C)C)cc3)c(=O)c2c1,AC50,[1],"2.51 µM [falling, full curve]"
Oc1ccccc1-c1nc(-c2cccs2)c(-c2cccs2)[nH]1,AC50,[1],"20 µM [falling, partial curve]"
COc1ccc(NC(=O)CCc2c(C)nc3c(c2C)c(=O)n(C)c(=O)n3C)c(OC)c1,AC50,[1],"3.16 µM [falling, single point]"
CCc1ccc2oc(C(=O)NCC(c3ccc(OC)cc3)N3CCCCC3)c(C)c2c1 (centres undefined),AC50,[1],"31.6 µM [falling, single point]"
Cc1cc(NC(=O)C2CCN(S(=O)(=O)c3c(C)noc3C)CC2)ccc1Br,AC50,[1],"3.98 µM [falling, partial curve, poor fit]"
CC1=C(C(=O)Nc2cccnc2)C(c2ccc(F)cc2)n2nc(-c3cccc(C)c3)nc2N1 (centres undefined),AC50,[1],"12.6 µM [falling, partial curve]"
O=C(Cn1c(=O)n(Cc2nc(-c3ccccc3)no2)c(=O)c2cc3c(cc21)OCO3)Nc1ccccc1,AC50,[1],"5.01 µM [falling, partial curve]"
Cc1cccc(-c2cc3nc4c(c(N5CCCC(O)C5)n3n2)CCC4)c1 (centres undefined),AC50,[1],"12.6 µM [falling, partial curve]"
CCC(C)n1c(=O)c2sccc2n2c(CCCC(=O)N3CCN(c4ccccc4)CC3)nnc12 (centres undefined),AC50,[1],"15.8 µM [falling, single point]"
COc1cccc(Cc2nc3ccccc3nc2SCC(=O)Nc2cccc(C)c2)c1,AC50,[1],"3.16 µM [falling, full curve]"
COc1ccc(CNC(=O)c2sc3nc4n(c(=O)c3c2C)CCCC4)cc1,AC50,[1],"10 µM [falling, partial curve]"
CC(C)c1ccc(NC(=O)CSC2=Nc3ccccc3C3=NC(CCC(=O)NC4CCCCC4)C(=O)N23)cc1 (centres undefined),AC50,[1],"39.8 µM [falling, single point]"
Cn1cccc1CNC(=O)Nc1ccc(Cl)cc1,AC50,[1],"12.6 µM [falling, partial curve]"
COC(=O)c1cc(Nc2nc3ccccc3nc2NS(=O)(=O)c2ccc(C)cc2)ccc1Cl,AC50,[1],"0.316 µM [falling, full curve]"
Cc1ccc(CN(C(=O)c2ccc(C(C)(C)C)cc2)c2ccccn2)o1,AC50,[1],"25.1 µM [falling, single point]"
CC(C)CC(=O)Nc1ccc2nc(SCC(=O)N3CCc4ccccc43)sc2c1,AC50,[1],"6.31 µM [falling, full curve]"
CCOc1ccccc1CNC(=O)c1sc2ncccc2c1-n1cccc1,AC50,[1],"15.8 µM [falling, partial curve]"
CCn1ccc2cc(S(=O)(=O)N3CCCN(C(=O)Nc4ccccc4F)CC3)ccc21,AC50,[1],"15.8 µM [falling, partial curve, poor fit]"
CCCc1cc(=O)[nH]c(SCC(=O)N2CCN(c3ccc(F)cc3)CC2)n1,AC50,[1],"20 µM [falling, single point]"
O=C(CSc1nnc(-c2ccc3c(c2)OCO3)o1)Oc1ccccc1,AC50,[1],"39.8 µM [falling, single point]"
COc1ccc2nc(NC(=O)Cc3ccc(OC)c(S(=O)(=O)N4CCOCC4)c3)sc2c1,AC50,[1],"12.6 µM [falling, partial curve]"
CCOc1ccc(CC(=O)Nc2cccc(-c3nc4cccnc4s3)c2C)cc1,AC50,[1],"39.8 µM [falling, single point]"
Cc1ccc(-c2cn3cccnc3n2)cc1NC(=O)C(C)(C)Oc1ccc(Cl)cc1,AC50,[1],"39.8 µM [falling, single point]"
COc1cccc(NCc2cccn2-c2nnc(N3CCC(C)CC3)s2)c1,AC50,[1],"39.8 µM [falling, partial curve, poor fit]"
CCC(C)NC(=O)CN1C(=O)c2cccnc2Sc2ccccc21 (centres undefined),AC50,[1],"7.94 µM [falling, full curve]"

# Exported with tabs: part of the list above.
smiles	measurement	setting	value
COc1ccccc1C(=O)Nc1ccc2nc(N3CCC(C)CC3)cc(C)c2c1	AC50	[1]	12.6 µM [falling, partial curve]
CCn1c(=O)c2cc(C(=O)N(CCCOC(C)C)Cc3ccco3)sc2c2ccccc21	AC50	[1]	10 µM [falling, partial curve]
O=C(c1cc2c(s1)-c1ccccc1OC2)N1CCN(c2ccccn2)CC1	AC50	[1]	7.94 µM [falling, full curve]
Cc1ccc(-c2sc(C(=O)Nc3ccc(Br)cc3)cc2CC(=O)O)cc1	AC50	[1]	15.8 µM [falling, partial curve]
O=C1Nc2ccccc2C12Nc1ccccc1-c1nc3ccccc3n12 (centres undefined)	AC50	[1]	7.94 µM [falling, partial curve]
Nc1c(C(=O)Nc2ccccc2Cl)c2ccccn2c1C(=O)c1ccc(Cl)cc1	AC50	[1]	0.1 µM [falling, full curve]
